Experimental data: PubChem BioAssay AID1259254 (NCATS, 2017)
The deposit covers about 59,000 reagents; shown is an unselected part. Over the whole deposit, about 1,550 (2.6%) are marked active. 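G2 share is only a proxy for re-replication; each gene was hit by three separate siRNAs, and active genes were retested.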 The raw values are shown without normalisation. Not given: the amount of reagent.

Screen: 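Finding genes that stop cells copying their DNA twice in one cycle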 (primary screen)
Cells: human HCT116 colorectal cancer cells
Reagent: single siRNA against human genes
Time to read-out: 3 days
Measured: 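Nuclei stained with Hoechst and imaged; cell-cycle phase assigned by DNA content; G2 share scaled per plate, non-targeting siRNA 0%, GMNN siRNA 100%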
Direction: G2 robust z-score and G2 cells, % of GMNN control: higher = more G2 cells, more excess DNA replication; raw share of cells in G2: higher = larger share of cells with G2 DNA content
Active means: 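An siRNA counts as active if its G2 robust z-score lies at least 5 MADs above the screen median; here such calls match roughly 38% of GMNN control or more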

The opening 4 records, to show the layout:
no.	gene	PubChem SID	G2 robust z-score	G2 cells, % of GMNN control	raw share of cells in G2 (%)	activity call
1	CNTRL (centriolin)	SID160729857	1.24	11.7	9.58	inactive
2	CNTRL (centriolin)	SID160729858	0.597	7.17	7.09	inactive
3	CNTRL (centriolin)	SID160729859	-1.04	-4.34	1.55	inactive
4	ATP13A4 (ATPase 13A4)	SID160732015	-0.375	0.331	4.89	inactive

The list itself, repeating the preview:
no.	gene	PubChem SID	G2 robust z-score	G2 cells, % of GMNN control	raw share of cells in G2 (%)	activity call
1	CNTRL (centriolin)	SID160729857	1.24	11.7	9.58	inactive
2	CNTRL (centriolin)	SID160729858	0.597	7.17	7.09	inactive
3	CNTRL (centriolin)	SID160729859	-1.04	-4.34	1.55	inactive
4	ATP13A4 (ATPase 13A4)	SID160732015	-0.375	0.331	4.89	inactive
5	ATP13A4 (ATPase 13A4)	SID160751935	-0.534	-0.793	5	inactive
6	ATP13A4 (ATPase 13A4)	SID160751936	-0.742	-2.26	3.5	inactive
7	LOC647115 (retired record)	SID160734028	-0.811	-2.74	2.17	inactive
8	LOC647115 (retired record)	SID160770139	3.91	30.5	15.3	inactive
9	LOC647115 (retired record)	SID160770141	1.87	16.1	9.21	inactive
10	ENPEP (glutamyl aminopeptidase)	SID160760491	-0.888	-3.28	4.42	inactive
11	ENPEP (glutamyl aminopeptidase)	SID160760503	-0.121	2.11	5.66	inactive
12	ENPEP (glutamyl aminopeptidase)	SID160760513	-0.055	2.58	4.87	inactive
13	AMDHD1 (amidohydrolase domain containing 1)	SID160758110	-0.381	0.284	3.92	inactive
14	AMDHD1 (amidohydrolase domain containing 1)	SID160758111	0.146	3.99	4.15	inactive
15	AMDHD1 (amidohydrolase domain containing 1)	SID160758112	0.0718	3.47	4.28	inactive
16	LIPK (lipase family member K)	SID160768879	-0.0336	2.73	4.68	inactive
17	LIPK (lipase family member K)	SID160768880	-0.147	1.93	3.97	inactive
18	LIPK (lipase family member K)	SID160768882	1.04	10.3	6.14	inactive
19	TAF6L (TATA-box binding protein associated factor 6 like)	SID160728902	-0.214	1.46	4.01	inactive
20	TAF6L (TATA-box binding protein associated factor 6 like)	SID160728903	-0.878	-3.21	4.56	inactive
21	TAF6L (TATA-box binding protein associated factor 6 like)	SID160728904	-1.05	-4.43	1.49	inactive
22	NSMAF (neutral sphingomyelinase activation associated factor)	SID160720039	0.439	6.05	7.82	inactive
23	NSMAF (neutral sphingomyelinase activation associated factor)	SID160720040	0.77	8.38	7.22	inactive
24	NSMAF (neutral sphingomyelinase activation associated factor)	SID160720041	-0.689	-1.88	2.68	inactive
25	PLVAP (plasmalemma vesicle associated protein)	SID160751168	0.94	9.58	7.3	inactive
26	PLVAP (plasmalemma vesicle associated protein)	SID160751169	-0.397	0.177	3.51	inactive
27	PLVAP (plasmalemma vesicle associated protein)	SID160751170	-0.152	1.9	2.98	inactive
28	GRPR (gastrin releasing peptide receptor)	SID160774618	0.247	4.7	7.52	inactive
29	GRPR (gastrin releasing peptide receptor)	SID160774619	0.0765	3.51	5.74	inactive
30	GRPR (gastrin releasing peptide receptor)	SID160774620	-0.441	-0.137	3.23	inactive
31	NCOR1 (nuclear receptor corepressor 1)	SID160728077	2.32	19.3	12.5	inactive
32	NCOR1 (nuclear receptor corepressor 1)	SID160728184	3	24.1	14.5	inactive
33	NCOR1 (nuclear receptor corepressor 1)	SID160728291	-0.0416	2.67	4.11	inactive
34	FAABTP (fatty acid amide binding transmembrane protein)	SID160743381	-0.955	-3.75	3.08	inactive
35	FAABTP (fatty acid amide binding transmembrane protein)	SID160743382	0.666	7.65	7.31	inactive
36	FAABTP (fatty acid amide binding transmembrane protein)	SID160743383	-0.092	2.32	3.88	inactive
37	ACP2 (acid phosphatase 2, lysosomal)	SID160777798	0.584	7.08	7.1	inactive
38	ACP2 (acid phosphatase 2, lysosomal)	SID160777810	-0.928	-3.56	3.23	inactive
39	ACP2 (acid phosphatase 2, lysosomal)	SID160777820	-0.6	-1.25	3.12	inactive
40	RTL9 (retrotransposon Gag like 9)	SID160746189	-0.454	-0.225	4.26	inactive
41	RTL9 (retrotransposon Gag like 9)	SID160746190	-0.805	-2.69	3.17	inactive
42	RTL9 (retrotransposon Gag like 9)	SID160746191	-0.918	-3.49	1.92	inactive
43	HERC3 (HECT and RLD domain containing E3 ubiquitin protein ligase 3)	SID160721141	-0.764	-2.41	4.42	inactive
44	HERC3 (HECT and RLD domain containing E3 ubiquitin protein ligase 3)	SID160721143	-0.51	-0.624	4.25	inactive
45	HERC3 (HECT and RLD domain containing E3 ubiquitin protein ligase 3)	SID160721144	2.1	17.7	11.1	inactive
46	FAM117B (family with sequence similarity 117 member B)	SID160732568	-0.285	0.961	3.4	inactive
47	FAM117B (family with sequence similarity 117 member B)	SID160759026	0.647	7.52	6.35	inactive
48	FAM117B (family with sequence similarity 117 member B)	SID160759027	6.39	47.9	17.7	active
